# Screening data, single-dose tests

Amino acid sequences for entries named in this document (tags omitted).
UniProt P9WPC5, whole entry: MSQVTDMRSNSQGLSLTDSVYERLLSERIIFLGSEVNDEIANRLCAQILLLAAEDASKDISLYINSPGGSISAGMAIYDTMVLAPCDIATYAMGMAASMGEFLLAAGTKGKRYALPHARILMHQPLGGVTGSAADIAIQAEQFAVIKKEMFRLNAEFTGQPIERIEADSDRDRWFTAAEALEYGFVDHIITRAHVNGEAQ
UniProt P9WPC3, whole entry partner: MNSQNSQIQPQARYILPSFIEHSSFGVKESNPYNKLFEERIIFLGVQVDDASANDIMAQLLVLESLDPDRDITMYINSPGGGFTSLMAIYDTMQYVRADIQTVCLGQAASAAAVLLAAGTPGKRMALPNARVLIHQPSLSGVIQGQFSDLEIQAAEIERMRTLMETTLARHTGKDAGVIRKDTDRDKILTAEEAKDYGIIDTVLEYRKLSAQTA
UniProt P9WNZ1, whole entry: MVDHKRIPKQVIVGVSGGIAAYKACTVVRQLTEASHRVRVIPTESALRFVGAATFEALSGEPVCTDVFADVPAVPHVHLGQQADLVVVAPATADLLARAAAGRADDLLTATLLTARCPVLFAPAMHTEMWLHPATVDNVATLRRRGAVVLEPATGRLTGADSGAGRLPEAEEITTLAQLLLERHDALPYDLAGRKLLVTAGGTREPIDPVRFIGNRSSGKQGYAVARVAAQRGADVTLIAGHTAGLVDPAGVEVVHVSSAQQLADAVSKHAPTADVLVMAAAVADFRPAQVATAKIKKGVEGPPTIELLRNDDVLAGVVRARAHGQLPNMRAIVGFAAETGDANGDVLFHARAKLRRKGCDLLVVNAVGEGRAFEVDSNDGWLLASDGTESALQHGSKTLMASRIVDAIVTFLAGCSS

Results are given as percent effect.
The controls that fix the scale are not given in the record; negative values are as filed.
The compounds are a random part of those screened.
A dash means the value is not listed here; it may have been measured.

A: 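Assay of Toxoplasma gondii numbers, read through their beta-galactosidase reporter with a colour substrate. Compounds at 10 µM. The record gives no direction; the compounds picked for IC50 retests had high values, so higher reads as fewer parasites. About 67,000 compounds were tested under these conditions; 0.38% (about 260) showed 50% or more at least once.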
B: 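ClpP1P2, Mycobacterium tuberculosis (UniProt P9WPC5 and UniProt P9WPC3). Protease assay of ClpP1P2, read by the AMC dye that it sets free. Concentration: 50 µM. Higher reads as stronger inhibition, judged from the few compounds that gave an IC50. Most other retested compounds had strongly negative values. Of about 69,000 compounds tested this way, about 10 (0.015%) reached 50% or more in at least one test.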
C: 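Whole-parasite assay of Trypanosoma brucei over 72 hours; the read-out is not stated. Concentration: 30 µM. The record gives no direction; compounds that gave an IC50 in retests scored well above the rest, so higher reads as stronger inhibition. Values scatter widely below zero; nearly all retest evidence comes from the higher of the two concentrations used. About 64,000 compounds were tested under these conditions; 1.5% (about 940) showed 50% or more at least once.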
D: 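Enzyme assay of CoaBC with a phosphate dye (Biomol Green) read at 650 nm. Target: Coenzyme A biosynthesis protein CoaBC, Mycobacterium tuberculosis (UniProt P9WNZ1). Concentration: 30 µM. Higher reads as stronger inhibition, judged from the few compounds that gave an IC50. Most strong results did not repeat in a second test. About 67,000 compounds were tested under these conditions; 0.06% (about 40) showed 50% or more at least once.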

SMILES	A	B	C	D
O=C(c1n[nH]c2c1CN(C1CCOCC1)CC2)N1CCCC1	-	7.015%	-	7.593%
Cc1ccsc1[C@@H]1CCN(C(=O)CCOc2ccccc2)C[C@H]1O	3.918%	-4.262%	-39.92%	0.4894%
O=C(CCN1CCOC1=O)N(Cc1ccncc1)CC1CCCO1 (centres undefined)	2.89%	-3.26%	-39.07%	-3.271%
CN1CCN(S(=O)(=O)c2cccc(F)c2)Cc2cccnc21.O=C(O)C(F)(F)F	-2.655%	-	-5.986%	-
Cc1ccc(CN2CCc3ncnc(C4CCOC4)c3CC2)s1.O=C(O)C(F)(F)F (centres undefined)	1.709%	-	21.21%	-
[H][C@]12COC[C@@H](NS(C)(=O)=O)[C@@]1([H])CN(Cc1ccoc1)C2	-3.032%	-	-14.29%	-
CCc1cnc(N)nc1NCCCN1CCCCC1CO (centres undefined)	-10.89%	-2.652%	-13.39%	2.913%
CN1N=C(C(=O)N(Cc2ccco2)C2CCCC2)CCC1=O	-29%	3.436%	-15.52%	6.3%
COc1ccccc1-n1nc(C(C)C)nc1Cc1nnc(N)s1	-12.03%	-10.54%	4.838%	6.914%
Cn1ccc(CN2CCN(CC3CC3)CC2)cc1=O	-18.53%	-13.29%	-	-2.413%
Cc1cnc(-c2nc(C3CCN(Cc4ccccc4O)CC3)no2)cn1	-1.527%	-25.3%	-0.2933%	-1.914%
O=C(CO)N1CCCn2nnc(Cn3cccn3)c2C1	3.052%	5.937%	-2.044%	12.02%
Cc1ccnc(C2CCCN2C(=O)CN(C)C)n1 (centres undefined)	2.964%	9.126%	7.316%	-5.081%
CC1CCN(C(=O)Cc2ccc(S(=O)(=O)C(F)F)cc2)CC1	6.901%	3.729%	3.999%	11.34%
CSc1ccc(C(=O)N2CC(=O)N(Cc3cccs3)CC(O)C2)cc1 (centres undefined)	-26.49%	-1.717%	-24.63%	0%
CCN(CC)S(=O)(=O)N1CCC(c2nccn2Cc2ccccn2)CC1	-8.58%	1.344%	-15.83%	-3.719%
Cc1cc(CN(C)C(=O)NC2CCCC2)no1	-3.011%	-9.56%	1.734%	2.376%
O=C(CCCNC(=O)C1CC1)Nc1cnn(-c2ccccc2Cl)c1	12.28%	3.196%	60.12%	1.349%
COc1cccc(CCNC(=O)NC(C)C)c1O	0.6944%	-9.693%	-22.59%	2.114%
CCn1cc(SCC(=O)N2CCCC(O)(CO)C2)c2ccccc21 (centres undefined)	1.622%	-4.645%	-33.67%	0.9756%
COC1COC2(CCN(Cc3ccccc3Cl)CC2)C1.O=C(O)C(F)(F)F (centres undefined)	-1.195%	-	30.54%	-
O=C(NCC1CCC2(CCNCC2)O1)C1CC1 (centres undefined)	-	-7.365%	-	0.7634%
O=C(c1cccs1)N1CC[C@H]2[C@@H]1CCC(=O)N2c1cccnc1	-	-8.774%	-	4.574%
O=C(CC1CC1)N1CCC2(CC(=O)N(c3cccc(F)c3)C2)C1 (centres undefined)	1.868%	-3.675%	-62.06%	-7.009%
CC(C)n1[nH]c(=O)c2c1NC(=O)CC2c1cccnc1 (centres undefined)	-5.576%	10.6%	-1.659%	4.386%
Cc1cccc(N(C)S(=O)(=O)c2cc(C(=O)O)cs2)c1	-5.437%	-10.74%	0.4925%	-3.602%
OC(CNCCn1cccn1)c1cccc(Br)c1 (centres undefined)	-5.787%	-40.36%	-3.209%	4.961%
Cc1ccc(N2CCCc3sc(C(=O)NCC4CCCO4)nc32)nn1 (centres undefined)	2.233%	-18.76%	-11.77%	7.768%
COc1ccccc1N1CCN(C(=O)CCc2nncn2C)C(C)C1 (centres undefined)	28.36%	11.32%	-36.82%	2.893%
Cn1cnnc1C1CCN(C(=O)CCCOc2ccccc2F)CC1	-0.847%	-11.86%	7.769%	-0.4819%
NC(=O)C1CN(Cc2c(O)ccc3oc4c(c23)CCCC4)CCO1 (centres undefined)	3.029%	2.171%	-35.95%	-4.39%
c1c(CN2CCCCC2)nc2n1CCN(CC1CC1)C2	-6.888%	1.334%	-165.1%	4.673%
CCC1CN(CC(=O)NCCC#N)CCO1 (centres undefined)	1.99%	-7.254%	-12.4%	-1.491%
[H][C@@]12COC[C@]1(C(=O)NCCc1cccs1)CN(S(C)(=O)=O)C2	1.275%	-	23.23%	-
O=C(CN1CCOCS1(=O)=O)NCCc1ccc(Cl)cc1	-4.076%	-3.692%	1.469%	0.9804%
CC(=O)N1CC(c2n[nH]c3ncccc23)C1	-6.056%	6.151%	-41.54%	-10.92%
CCN(Cc1cnn(CC)c1)C(=O)Cn1c(=O)c(C)nc2ccccc21	-0.8115%	-1.553%	-23.71%	-6.087%
Cc1c(C2SCC(=O)Nc3c2c(O)nn3C2CCCCC2)cnn1C (centres undefined)	6.169%	-8.128%	-15.95%	2.278%
CCc1cc(=O)n(CC(=O)NCC2CCCO2)c(-c2cccc(F)c2)n1 (centres undefined)	21.66%	-5.247%	-	-3.1%
CC(NC(=O)NCCc1nc(C(F)(F)F)cs1)C(=O)N(C)C (centres undefined)	-0.9091%	-2.179%	6.428%	13.62%
O=C(NCC1CC1)C1CN(C(=O)c2cccs2)CC12CCOCC2 (centres undefined)	0.641%	-2.394%	-7.875%	4.695%
CCc1ccccc1C(=O)N1CCCC1CC(=O)c1cnn(C)c1 (centres undefined)	-19.45%	-0.4143%	-4.858%	-5.839%
CN1C(=O)CC[C@]12CC[C@@H](NC(=O)NCc1cccnc1)CC2	-	-7%	-	2.228%
N#Cc1ccc(CN2CCNC(=O)C2c2cccs2)cc1 (centres undefined)	7.265%	1.257%	-5.74%	9.54%
CCOC(=O)N1CCC(Nc2cc(CC)nc3c(C)c(C)nn23)CC1	12.08%	-20.71%	-31.12%	4.082%
Cc1nc(CC(=O)N2CCN(C(C)c3ccccc3F)CC2)cs1 (centres undefined)	-5.501%	5.247%	-22.42%	6.198%
O=C(O)C(F)(F)F.O=C(O)C(F)(F)F.[H][C@@]12CCN(C3CCOCC3)C[C@]1([H])[C@@H](CNC(=O)c1ccncc1)OC2	-27.17%	-	-	-
Cc1ccc(-c2nc(CNC3CCc4ncnn4C3)cs2)cc1 (centres undefined)	-31.77%	-15.39%	0.5453%	2.632%
CCOc1cccc(C(C(=O)O)N(C)Cc2cc(C)no2)c1 (centres undefined)	-10.49%	-0.4135%	-0.7391%	4.151%
COc1nc2ccccc2cc1C1CC(=O)Nc2n[nH]c(C3CCC3)c21 (centres undefined)	-2.499%	6.027%	-36.41%	4.793%
Cc1ccc(NC2COC3(CCN(CC(C)C)CC3)C2)nn1.O=C(O)C(F)(F)F (centres undefined)	-2.394%	-	-54.93%	-
Cc1nn(C)cc1CN1CCN(CC2(c3ccccc3)CC2)CC1	17.94%	-19.06%	-23.2%	-0.4932%
c1cnnc(NCC2CN(CCn3cncn3)CCO2)c1 (centres undefined)	1.418%	10.09%	-54.7%	1.72%
Cc1cnccc1-c1cnn(CCNC(=O)c2ccncc2)c1C1CC1	-	1.93%	-	3.963%
Cc1cccc(NS(=O)(=O)c2cc3c(c(C(=O)O)c2)OCCO3)c1	-17.54%	-20.85%	-19.74%	3.448%
CCCc1noc(CN2CCC(C(=O)Nc3cnn(CC)c3)CC2)n1	-20.9%	-5.727%	-12%	8.82%
OC1(CNCc2ccc(F)c(C(F)(F)F)c2)CCOC1 (centres undefined)	-0.5057%	-3.651%	-35.51%	5.769%
Cc1cccc(OCCC(=O)N(C)CCC#N)c1C	-1.458%	-3.167%	43.96%	2.564%
NC(=O)C1CCN(C(=O)CCn2c(C(F)(F)F)cc3cccnc32)CC1	2.179%	-8.633%	-66.62%	-0.2433%
c1cnc(N2CC3(CCN(Cc4ccncc4)C3)C2)nc1	-	4.083%	-	-16.84%
CCOc1ccc(NC(=O)N2CCOC(C(N)=O)C2)cc1Cl (centres undefined)	0.6364%	-7.832%	-32.67%	10.5%
CN(C)C1CCCN(C(=O)CCc2csc(N)n2)CC1 (centres undefined)	-2.924%	-3.022%	-7.703%	-19.44%
COc1ccc(C(C)NCc2c[nH]nc2C)cc1OC.Cl (centres undefined)	10.86%	-	3.258%	-
Cc1nc(C(C)NC(=O)c2cn(CCC3CCCCC3)nn2)n[nH]1 (centres undefined)	12.74%	11.81%	-8.787%	6.132%
CN(C)CCOC1CC2(CCN(c3cnccn3)CC2)c2ccccc21.O=C(O)C(F)(F)F (centres undefined)	0.7979%	-	-63.78%	-
CSc1ccc(-n2nnc(C(=O)O)c2-c2ccccn2)cc1	-2.419%	3.043%	-14.71%	3.535%

7 of the entries, repeated:

SMILES,A,B,C,D
CCc1cnc(N)nc1NCCCN1CCCCC1CO (centres undefined),-10.89%,-2.652%,-13.39%,2.913%
NC(=O)C1CN(Cc2c(O)ccc3oc4c(c23)CCCC4)CCO1 (centres undefined),3.029%,2.171%,-35.95%,-4.39%
Cc1nc(CC(=O)N2CCN(C(C)c3ccccc3F)CC2)cs1 (centres undefined),-5.501%,5.247%,-22.42%,6.198%
CC1CCN(C(=O)Cc2ccc(S(=O)(=O)C(F)F)cc2)CC1,6.901%,3.729%,3.999%,11.34%
OC(CNCCn1cccn1)c1cccc(Br)c1 (centres undefined),-5.787%,-40.36%,-3.209%,4.961%
Cc1cccc(NS(=O)(=O)c2cc3c(c(C(=O)O)c2)OCCO3)c1,-17.54%,-20.85%,-19.74%,3.448%
CCN(Cc1cnn(CC)c1)C(=O)Cn1c(=O)c(C)nc2ccccc21,-0.8115%,-1.553%,-23.71%,-6.087%

The values are deposited in ChEMBL (CHEMBL3988442, “University of Dundee, Small-Polar-MMV Screening Library” (2021)).